{"sequences": {"note": "The chains behind the UniProt entries cited, without tags or fusion partners. Where a name states a change or a piece, a line headed by the entry shows the natural chain unless it says otherwise.", "UniProt P18054": "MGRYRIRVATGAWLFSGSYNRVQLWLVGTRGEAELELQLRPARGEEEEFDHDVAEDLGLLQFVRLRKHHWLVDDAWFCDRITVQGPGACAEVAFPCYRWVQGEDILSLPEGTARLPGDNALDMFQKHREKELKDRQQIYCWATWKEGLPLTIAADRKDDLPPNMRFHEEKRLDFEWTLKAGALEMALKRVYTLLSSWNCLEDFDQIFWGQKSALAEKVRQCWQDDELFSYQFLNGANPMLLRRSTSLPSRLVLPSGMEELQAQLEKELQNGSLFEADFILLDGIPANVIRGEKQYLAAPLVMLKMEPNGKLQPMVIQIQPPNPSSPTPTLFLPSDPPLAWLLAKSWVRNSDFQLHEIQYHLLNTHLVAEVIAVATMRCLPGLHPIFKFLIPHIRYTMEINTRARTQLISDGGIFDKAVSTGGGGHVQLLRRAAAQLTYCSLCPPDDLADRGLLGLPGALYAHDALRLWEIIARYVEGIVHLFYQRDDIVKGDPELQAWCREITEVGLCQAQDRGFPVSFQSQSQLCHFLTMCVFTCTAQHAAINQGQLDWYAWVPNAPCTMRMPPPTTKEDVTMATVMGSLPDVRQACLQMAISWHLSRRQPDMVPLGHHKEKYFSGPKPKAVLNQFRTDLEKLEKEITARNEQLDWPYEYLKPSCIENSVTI"}, "source": "PubChem BioAssay AID1671190", "about": "(National Center for Advancing Translational Sciences (NCATS), 2021)", "note": "Among all 580,000 compounds or so, about 6,100 (1.1%) were called active. This list was built around the results that the source calls inconclusive (neither active nor inactive); the mix of calls is not that of the screen. The call rests on the fitted dose curve; in most records, active means well fitted inhibition curve with a large enough effect; inconclusive means small, poorly fitted or top-dose-only effect, or another doubt; inactive means no such curve, though single readings can be large or run the other way. Potencies of inconclusive entries are doubtful fits and often do not repeat. On the % scale 0 is the no-effect control and ±100 the full control effect; potency means the concentration at half of the fitted maximal effect.", "data": [{"target": "Polyunsaturated fatty acid lipoxygenase ALOX12 (Homo sapiens) (UniProt P18054)", "test": "Primary qHTS assay for inhibitors of human arachidonate 12S-lipoxygenase (ALOX12): Round 2", "conditions": "purified 12hLO, xylenol orange hydroperoxide absorbance; activity change, negative = inhibition: at 108 µM (top of the series) unless noted", "method_in_brief": "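Purified human 12hLO (150 nM final) in 25 mM Hepes, 0.01% Triton X-100, pH 7.0 was preincubated 15 min at room temperature with compound. Then 40 uM arachidonic acid was added, 30 min. Hydroperoxide was read by Fe-XO absorbance ratio 573/405 nm.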", "values": [{"smiles": "Cc1ccc(S(=O)(=O)N2CCOCC2)cc1NC(=O)Cn1nnc(-c2ccccc2)n1", "activity change, negative = inhibition": "inactive: -2%"}, {"smiles": "CCOC(=O)C1=C(C)NC(C)=C(C(=O)OCC)C1c1ccc(O)cc1", "activity change, negative = inhibition": "inactive: -32.5%"}, {"smiles": "CN(C)CCN(Cc1cc2cc3c(cc2[nH]c1=O)OCO3)C(=S)NCC1CCCO1", "note": "(configuration not stated)", "activity change, negative = inhibition": "inactive: 0.0407%"}, {"smiles": "COc1cc(C2SCCS2)ccc1OC(=O)c1cc(OC)c(OC)c(OC)c1", "activity change, negative = inhibition": "inactive: 2.42%"}, {"smiles": "CCOc1ccc(-c2cn3c(n2)sc2cc(C(=O)NCCc4ccc(OC)c(OC)c4)ccc23)cc1", "Potency": "inconclusive: 112 µM [inhibitor, partial curve, poor fit]"}, {"smiles": "O=C(NNC(=O)C12CC3CC(CC(C3)C1)C2)c1ccncc1", "Potency": "inconclusive: 35.5 µM [inhibitor, partial curve, poor fit]"}, {"smiles": "Cc1cc(C)nc(NS(=O)(=O)c2ccc(NC(=O)CCC(=O)O)cc2)n1", "Potency": "inconclusive: 100 µM [inhibitor, partial curve, poor fit]"}, {"smiles": "Cc1ccc(S(=O)(=O)N2CCN(CC(O)CN3CCOCC3)CC2)cc1", "note": "(configuration not stated)", "Potency": "inconclusive: 141 µM [inhibitor, single point]"}, {"smiles": "CN1Cc2nc(-c3cc(F)cc(F)c3)ccc2OCC1=O", "activity change, negative = inhibition": "inactive: 17.5% [at 176 µM]"}, {"smiles": "CN(C)c1ncc2nc(-c3cccs3)c(=O)n(Cc3cccs3)c2n1", "activity change, negative = inhibition": "inactive: 0%"}, {"smiles": "CCCCOc1ccc(/C(O)=C2/C(=O)C(=O)N(Cc3cccnc3)C2c2ccncc2)c(C)c1", "note": "(configuration not stated)", "activity change, negative = inhibition": "inactive: 0.775%"}, {"smiles": "COc1cc(CC(=O)Nc2ccc(S(=O)(=O)N(C)C)cc2)cc(OC)c1OC", "Potency": "inconclusive: 31.6 µM [inhibitor, partial curve]"}, {"smiles": "Fc1ccc(Br)cc1-c1nnc2sc(Cn3cccn3)nn12", "Potency": "inconclusive: 39.8 µM [inhibitor, partial curve, poor fit]"}, {"smiles": "COc1cccc(CN2CC3(C2)C(=O)N(Cc2cccc(Cl)c2)C(=O)[C@@H]2C[C@@H](O)CN23)c1", "Potency": "inconclusive: 22.4 µM [inhibitor, full curve, poor fit]"}, {"smiles": "Cc1cccc(-c2nc(CN3CCCC(C(=O)NC4CCC(C)CC4)C3)c(C)o2)c1", "note": "(configuration not stated)", "Potency": "inconclusive: 158 µM [inhibitor, single point]"}, {"smiles": "CCOC(=O)c1c(S(=O)(=O)N2CCC(C(=O)Nc3ccc(OCC)cc3)CC2)c(C)n(C)c1C", "activity change, negative = inhibition": "inactive: -22.2%"}, {"smiles": "CCN(CC)S(=O)(=O)c1ccc(N(C)C)c(NS(=O)(=O)c2c(C)cc(C)cc2C)c1", "Potency": "inconclusive: 50.1 µM [inhibitor, full curve, poor fit]"}, {"smiles": "O=C(c1ccc(Cl)cc1)N1CCC(n2cnnc2-c2ccccc2)CC1", "activity change, negative = inhibition": "inactive: 1.11%"}, {"smiles": "C[C@@H]1CN(C(=O)OC(C)(C)C)CCN1c1ccc(N2CC[C@H](O)C2)c(C#N)c1", "Potency": "inconclusive: 39.8 µM [inhibitor, partial curve, poor fit]"}, {"smiles": "CC(=O)CSc1nsc(SCC(C)=O)c1C#N", "Potency": "inconclusive: 28.2 µM [inhibitor, partial curve, poor fit]"}, {"smiles": "Cc1ccc(N2C(=O)c3ccccc3NC2c2cnc3ccccc3n2)cc1", "note": "(configuration not stated)", "Potency": "inconclusive: 44.7 µM [inhibitor, single point]"}, {"smiles": "O=S(=O)(c1ccccc1)N1N=C(c2ccc(Br)cc2)CC1c1ccco1", "note": "(configuration not stated)", "activity change, negative = inhibition": "inactive: -13.9%"}, {"smiles": "CC(Sc1nc2ncc(Cl)cc2[nH]1)C(=O)Nc1ccc(C(N)=O)cc1", "note": "(configuration not stated)", "Potency": "inconclusive: 28.2 µM [inhibitor, single point]"}, {"smiles": "Cc1cccc(NC(=O)C(C)(C)c2ccc(Cl)cc2)n1", "Potency": "inconclusive: 112 µM [inhibitor, partial curve, poor fit]"}, {"smiles": "O=C(CCC1CCCC1)Nc1ccc2ccccc2c1", "Potency": "inconclusive: 22.4 µM [inhibitor, partial curve, poor fit]"}, {"smiles": "Cc1ccc(CS/C(Nc2ccccc2C)=C(\\C#N)C(N)=O)c(C)c1", "Potency": "inconclusive: 44.7 µM [inhibitor, partial curve, poor fit]"}, {"smiles": "COc1ccc(OC)c(NC(=O)N2c3ccccc3Sc3ccccc32)c1", "Potency": "inconclusive: 8.91 µM [inhibitor, full curve, poor fit]"}, {"smiles": "CC(C)CN1CC2CCC(C1)N2c1ccc(C(F)(F)F)cc1", "activity change, negative = inhibition": "inactive: 0.0761% [at 6.33 µM]"}, {"smiles": "CN(C)c1ccc(/C=C(\\NC(=O)c2ccccc2)C(=O)NCc2ccncc2)cc1", "activity change, negative = inhibition": "inactive: 2.23%"}, {"smiles": "CCNc1nc(SCCOc2ccc(C)cc2)nc(N(C)C)n1", "Potency": "inconclusive: 126 µM [inhibitor, partial curve, poor fit]"}, {"smiles": "CCc1ccc(C2c3c(-c4cc(C)ccc4O)n[nH]c3C(=O)N2Cc2cccnc2)cc1", "note": "(configuration not stated)", "Potency": "inconclusive: 126 µM [inhibitor, single point]"}, {"smiles": "CCCCCCCc1nn2c(=O)cc(O)nc2s1", "Potency": "inconclusive: 100 µM [inhibitor, partial curve, poor fit]"}, {"smiles": "COc1ccc(C2=NN(C(=O)CCC(=O)O)C(c3ccccc3)C2)cc1", "note": "(configuration not stated)", "activity change, negative = inhibition": "inactive: 13.6%"}, {"smiles": "N#CC1(c2ccccc2)CCC(=NNS(=O)(=O)c2ccccc2)CC1", "note": "(configuration not stated)", "Potency": "inconclusive: 70.8 µM [inhibitor, partial curve, poor fit]"}, {"smiles": "CCc1cc[n+](-c2nc3ccccc3nc2C(=C=[N-])C#N)cc1", "Potency": "inconclusive: 100 µM [inhibitor, single point]"}, {"smiles": "COCCN[C@@H]1C[C@@H]2c3[nH]c4ccccc4c3C[C@@H](C(=O)OC)N2[C@H](c2ccc(C(F)(F)F)cc2)C1", "activity change, negative = inhibition": "inactive: 2.21%"}, {"smiles": "O=C(CC1COCCN1)N1CCC2(CCC(=O)N(CCc3ccccc3)C2)CC1", "note": "(configuration not stated)", "Potency": "inconclusive: 10 µM [inhibitor, full curve]"}, {"smiles": "O=C(NC(=S)NCc1ccccc1Cl)c1cccs1", "Potency": "active: 15.8 µM"}, {"smiles": "O=C(Nc1cccc(F)c1)N1CCCC(c2nn[nH]n2)C1", "note": "(configuration not stated)", "Potency": "inconclusive: 25.1 µM [inhibitor, single point]"}, {"smiles": "Cc1oc2cc(OCC(=O)Nc3ccc(F)cc3F)ccc2c(=O)c1Oc1ccccc1", "Potency": "inconclusive: 100 µM [inhibitor, single point]"}, {"smiles": "COc1ccc(/C=C(/C#N)c2ccc(C(F)(F)F)cn2)cc1O", "Potency": "inconclusive: 0.631 µM [inhibitor, full curve, poor fit]"}, {"smiles": "CN(C)CCN(C)C(=O)c1ccc2c(c1)NC(C)(COc1ccc3[nH]ccc3c1)CO2", "note": "(configuration not stated)", "Potency": "inconclusive: 63.1 µM [inhibitor, full curve]"}]}]}
